From patent US6486129B1, “Antithrombotic compounds” (Akzo Nobel N.V., priority 1998, dated 2002)
Structures were worked out from names or drawings and are uncertain.

How the values were obtained:
Activated Factor X (Xa) = assay: Anti-factor Xa assay (chromogenic substrate S-2222, TNP buffer); details: tested form: Na salt
Method: Activated Factor X (Xa) is a factor in the coagulation cascade. The anti-Xa activity of compounds of the present invention was assessed by measuring spectrophotometrically the rate of hydrolysis of the chromogenic substrate s-2222 exterted by Xa. This assay for anti-Xa activity in a buffer system was used to assess the IC50-value of the test compound.
In general the followed procedure and test conditions were analogous to those of the anti-thrombin assay as described above. Differences are indicated below.
Reference compound: benzamidine
Solubilisation can be assisted with dimethylsulphoxide, methanol ethanol, acetonitrile or tert.-butyl alcohol which are without adverse effects in concentrations up to 1% (for DMSO) and 2.5% (for the other solvents) in the final reaction mixture.
One vial S-2222 (15 mg; Kabi Diagnostica, Sweden) is dissolved in 10 ml water to give a concentration of 1.5 mg·ml^−1 (2 mmol·l^−1).
Bovine Factor Xa Human (71 nKat·vial^−1; Kabi Diagnostica) is dissolved in 10 ml TNP buffer and then further diluted with 30 ml TNP buffer to give a concentration of 1.77 nKat·ml^−1. The dilution has to be freshly prepared.
Instead of the S-2238 solution (in anti-thrombin assay), the above S-2222 solution is added to each well in this assay.

[1] = biological target: Human thrombin (Factor IIa) (Homo sapiens, UniProt P00734); assay: Anti-thrombin assay (chromogenic substrate S-2238, TNP buffer); assay type: biochemical; details: read-out: Antithrombin activity IC50, S-2238, TNP buffer pH 7.4, 37° C., tested form: Na salt

IC50 [1]: 350 nM
Structure (SMILES): CO[C@H]1O[C@H](COS(=O)(=O)O)[C@@H](O[C@@H]2O[C@@H](C(=O)O)[C@@H](O[C@H]3O[C@H](COS(=O)(=O)O)[C@@H](O[C@@H]4O[C@H](C(=O)O)[C@@H](O[C@H]5O[C@H](COS(=O)(=O)O)[C@@H](OCCOCCOCCOCCNC(=O)c6ccc(NC(=O)CSC[C@H](NS(=O)(=O)c7ccc8ccccc8c7)C(=O)NC(Cc7ccc(C(=N)N)cc7)C(=O)N7CCCCC7)cc6)[C@H](OS(=O)(=O)O)[C@H]5OS(=O)(=O)O)[C@H](OC)[C@H]4OS(=O)(=O)O)[C@H](OS(=O)(=O)O)[C@H]3OS(=O)(=O)O)[C@H](OC)[C@H]2OS(=O)(=O)O)[C@H](OS(=O)(=O)O)[C@H]1OS(=O)(=O)O (some centres unmarked)
Anti-factor Xa activity (Activated Factor X (Xa)): 885 U/mg
